Experimental data as given in publication doi:10.1101/2020.01.21.913814.
Results are given in words; binding and its absence hold for the method and conditions named. Some entries that bind do so weakly or less than the wild type. Where a sequence is shown, tags or fusion partners need not be part of it.

Molecular target: T1, His-tagged Arabidopsis thaliana full-length UVR8 (UV … LOCUS 8) (Arabidopsis thaliana), Q9FN03
T1 chain: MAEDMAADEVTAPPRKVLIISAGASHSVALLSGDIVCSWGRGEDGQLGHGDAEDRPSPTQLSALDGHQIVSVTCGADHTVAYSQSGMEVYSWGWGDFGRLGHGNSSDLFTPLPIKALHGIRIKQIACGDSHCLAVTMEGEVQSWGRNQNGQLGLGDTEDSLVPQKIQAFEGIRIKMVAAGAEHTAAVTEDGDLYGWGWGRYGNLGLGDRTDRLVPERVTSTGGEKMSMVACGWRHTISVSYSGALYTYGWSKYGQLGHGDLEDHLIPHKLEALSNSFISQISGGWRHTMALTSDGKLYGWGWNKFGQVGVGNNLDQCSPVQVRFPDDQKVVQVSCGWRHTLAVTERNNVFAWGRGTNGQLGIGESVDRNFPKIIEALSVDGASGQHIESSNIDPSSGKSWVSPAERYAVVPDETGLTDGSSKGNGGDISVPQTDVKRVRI
Experiment: SDS-PAGE without boiling
Conditions: remark: other sources report otherwise

binding: binds
B1: His-tagged Arabidopsis thaliana full-length UVR8 (UV … LOCUS 8), Q9FN03 1-440 (natural protein)
chain: MAEDMAADEVTAPPRKVLIISAGASHSVALLSGDIVCSWGRGEDGQLGHGDAEDRPSPTQLSALDGHQIVSVTCGADHTVAYSQSGMEVYSWGWGDFGRLGHGNSSDLFTPLPIKALHGIRIKQIACGDSHCLAVTMEGEVQSWGRNQNGQLGLGDTEDSLVPQKIQAFEGIRIKMVAAGAEHTAAVTEDGDLYGWGWGRYGNLGLGDRTDRLVPERVTSTGGEKMSMVACGWRHTISVSYSGALYTYGWSKYGQLGHGDLEDHLIPHKLEALSNSFISQISGGWRHTMALTSDGKLYGWGWNKFGQVGVGNNLDQCSPVQVRFPDDQKVVQVSCGWRHTLAVTERNNVFAWGRGTNGQLGIGESVDRNFPKIIEALSVDGASGQHIESSNIDPSSGKSWVSPAERYAVVPDETGLTDGSSKGNGGDISVPQTDVKRVRI
